Results published in publication PMC9975939.
No constants are given. Whether binding was seen depends on the method and setting. For part of these data: Binding seen in cells or lysates may run through a third protein. Some results given as binding are weak or reduced against the parent protein; the word gives no strength. For part of these data: Where a sequence is shown, tags or fusion partners need not be part of it. Blank lines part the entries; values can stand above or below the binder they belong to.

Legend:
[1] = biological target: T1, NDP52 (human (endogenous in HeLa)), Q13137; test: cross-linking; disulphide-linked conjugates (DLC) formed in cells (HeLa, HeLa PentaKO with NDP52 transgenes, MEFs) treated with H2O2, PR-619, TrxR inhibitors, AO or RO or G-TPP with or without bafilomycin A1; lysis in RIPA with 50 mM N-ethylmaleimide; whole lysates or mitochondrial fractions; SDS-PAGE without (non-reduced) or with 2.5% β-mercaptoethanol, immunoblot; settings: remark: other sources report otherwise
T1 chain: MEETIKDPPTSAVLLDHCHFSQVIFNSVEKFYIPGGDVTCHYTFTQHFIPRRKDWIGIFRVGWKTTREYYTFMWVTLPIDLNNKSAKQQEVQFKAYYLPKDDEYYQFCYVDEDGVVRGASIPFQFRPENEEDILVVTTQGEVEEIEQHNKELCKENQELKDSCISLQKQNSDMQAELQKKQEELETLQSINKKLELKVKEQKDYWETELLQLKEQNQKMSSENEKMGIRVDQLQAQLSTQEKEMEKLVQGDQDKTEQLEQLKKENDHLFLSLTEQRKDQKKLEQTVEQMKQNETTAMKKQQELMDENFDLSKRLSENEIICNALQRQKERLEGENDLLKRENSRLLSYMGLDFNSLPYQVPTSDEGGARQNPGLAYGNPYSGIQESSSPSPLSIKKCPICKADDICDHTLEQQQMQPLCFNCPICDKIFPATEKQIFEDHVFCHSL

[2] = biological target: T2, His-Flag-NDP52 (human), Q13137; test: native gel or EMSA; blue native PAGE of lysates (30 μg; 20 mM Bis-Tris pH 7.2, 40 mM NaCl, 10% glycerol, 0.5% NP-40) of HeLa PentaKO cells stably expressing NDP52 WT or Mut, immunoblot; settings: remark: other sources report otherwise
T2 chain: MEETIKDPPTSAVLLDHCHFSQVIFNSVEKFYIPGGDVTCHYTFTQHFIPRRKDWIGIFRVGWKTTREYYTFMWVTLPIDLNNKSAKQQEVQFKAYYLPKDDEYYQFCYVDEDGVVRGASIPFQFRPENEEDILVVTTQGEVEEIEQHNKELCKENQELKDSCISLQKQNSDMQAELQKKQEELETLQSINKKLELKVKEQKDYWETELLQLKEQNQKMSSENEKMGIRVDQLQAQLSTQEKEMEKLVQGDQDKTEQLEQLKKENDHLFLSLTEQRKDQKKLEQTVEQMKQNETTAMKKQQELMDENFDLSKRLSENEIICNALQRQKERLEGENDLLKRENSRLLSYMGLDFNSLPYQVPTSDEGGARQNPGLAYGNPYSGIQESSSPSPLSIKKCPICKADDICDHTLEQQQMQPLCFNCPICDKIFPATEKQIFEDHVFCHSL

[3] = biological target: T2, His-Flag-NDP52 (human), Q13137; test: cross-linking; disulphide-linked conjugates (DLC) formed in cells (HeLa, HeLa PentaKO with NDP52 transgenes, MEFs) treated with H2O2, PR-619, TrxR inhibitors, AO or RO or G-TPP with or without bafilomycin A1; lysis in RIPA with 50 mM N-ethylmaleimide; whole lysates or mitochondrial fractions; SDS-PAGE without (non-reduced) or with 2.5% β-mercaptoethanol, immunoblot; settings: remark: other sources report otherwise
[4] = biological target: GST-NDP52 wild-type (human) (UniProt Q13137); test: cross-linking; recombinant NDP52 in 50 mM Tris, 150 mM NaCl pH 7.4 exposed to AO; SDS-PAGE, immunoblot; disulphide-linked conjugates (DLC); both purified
[5] = biological target: T3, Flag-human NDP52 WT (human), Q13137; test: cross-linking; disulphide-linked conjugates (DLC) formed in cells (HeLa, HeLa PentaKO with NDP52 transgenes, MEFs) treated with H2O2, PR-619, TrxR inhibitors, AO or RO or G-TPP with or without bafilomycin A1; lysis in RIPA with 50 mM N-ethylmaleimide; whole lysates or mitochondrial fractions; SDS-PAGE without (non-reduced) or with 2.5% β-mercaptoethanol, immunoblot; settings: remark: other sources report otherwise
T3 chain: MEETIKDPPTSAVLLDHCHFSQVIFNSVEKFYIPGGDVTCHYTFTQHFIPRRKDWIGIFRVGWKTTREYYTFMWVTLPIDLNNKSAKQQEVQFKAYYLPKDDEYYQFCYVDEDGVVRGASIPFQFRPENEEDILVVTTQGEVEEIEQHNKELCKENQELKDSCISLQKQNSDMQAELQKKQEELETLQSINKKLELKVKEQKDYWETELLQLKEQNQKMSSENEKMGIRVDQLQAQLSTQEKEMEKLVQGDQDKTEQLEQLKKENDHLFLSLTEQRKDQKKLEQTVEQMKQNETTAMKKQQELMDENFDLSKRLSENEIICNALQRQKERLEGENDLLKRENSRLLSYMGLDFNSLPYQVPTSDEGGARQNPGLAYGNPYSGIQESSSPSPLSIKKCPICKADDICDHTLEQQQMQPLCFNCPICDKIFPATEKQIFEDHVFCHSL

His-Flag-NDP52 (human) [6] = biological target: His-Flag-NDP52 (human) (UniProt Q13137); test: condition: only cells pre-treated with 20 μM S3QEL for 30 min; cross-linking; DLC in HeLa PentaKO + NDP52 WT cells pre-treated with 20 μM S3QEL for 30 min, then AO for 2 h; immunoblot for NDP52 in non-reducing conditions
His-Flag-NDP52 (human) [7] = biological target: His-Flag-NDP52 (human) (UniProt Q13137); test: condition: only cells pre-treated with 500 nM MitoQ for 22 h; cross-linking; DLC in HeLa PentaKO + NDP52 WT cells pre-treated with 500 nM MitoQ for 22 h, then 4 μM/10 μM AO for 2 h with or without 400 nM Baf; immunoblot for NDP52
[8] = biological target: T4, GST-NDP52 wild-type (human), Q13137; test: cross-linking; recombinant NDP52 in 50 mM Tris, 150 mM NaCl pH 7.4 exposed to H2O2 (5 min); SDS-PAGE, immunoblot or CBB staining; disulphide-linked conjugates (DLC); both purified; settings: remark: other sources report otherwise
T4 chain: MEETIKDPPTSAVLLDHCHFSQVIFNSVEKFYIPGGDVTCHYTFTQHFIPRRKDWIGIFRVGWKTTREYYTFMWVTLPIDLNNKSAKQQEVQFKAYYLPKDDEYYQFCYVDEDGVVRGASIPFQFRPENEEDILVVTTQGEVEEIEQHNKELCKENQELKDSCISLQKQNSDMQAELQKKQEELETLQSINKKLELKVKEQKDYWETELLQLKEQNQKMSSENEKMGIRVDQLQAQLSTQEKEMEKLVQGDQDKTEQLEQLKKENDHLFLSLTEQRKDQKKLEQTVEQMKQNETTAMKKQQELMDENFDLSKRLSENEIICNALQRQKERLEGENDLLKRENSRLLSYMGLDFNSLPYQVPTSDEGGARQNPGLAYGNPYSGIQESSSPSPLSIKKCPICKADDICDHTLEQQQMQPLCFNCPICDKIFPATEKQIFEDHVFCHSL

[9] = biological target: His-Flag-NDP52 quadruple cysteine mutant (C18, C153, C163, C321 to Ala) (human) (UniProt Q13137); test: cross-linking; disulphide-linked conjugates (DLC) formed in cells (HeLa, HeLa PentaKO with NDP52 transgenes, MEFs) treated with H2O2, PR-619, TrxR inhibitors, AO or RO or G-TPP with or without bafilomycin A1; lysis in RIPA with 50 mM N-ethylmaleimide; whole lysates or mitochondrial fractions; SDS-PAGE without (non-reduced) or with 2.5% β-mercaptoethanol, immunoblot

binding [1]: binds
B1: NDP52, Q13137 1-446 (protein)
chain: MEETIKDPPTSAVLLDHCHFSQVIFNSVEKFYIPGGDVTCHYTFTQHFIPRRKDWIGIFRVGWKTTREYYTFMWVTLPIDLNNKSAKQQEVQFKAYYLPKDDEYYQFCYVDEDGVVRGASIPFQFRPENEEDILVVTTQGEVEEIEQHNKELCKENQELKDSCISLQKQNSDMQAELQKKQEELETLQSINKKLELKVKEQKDYWETELLQLKEQNQKMSSENEKMGIRVDQLQAQLSTQEKEMEKLVQGDQDKTEQLEQLKKENDHLFLSLTEQRKDQKKLEQTVEQMKQNETTAMKKQQELMDENFDLSKRLSENEIICNALQRQKERLEGENDLLKRENSRLLSYMGLDFNSLPYQVPTSDEGGARQNPGLAYGNPYSGIQESSSPSPLSIKKCPICKADDICDHTLEQQQMQPLCFNCPICDKIFPATEKQIFEDHVFCHSL

binding [2]: binds
binding [3]: binds
B2: His-Flag-NDP52, Q13137 1-446 (protein)
chain: MEETIKDPPTSAVLLDHCHFSQVIFNSVEKFYIPGGDVTCHYTFTQHFIPRRKDWIGIFRVGWKTTREYYTFMWVTLPIDLNNKSAKQQEVQFKAYYLPKDDEYYQFCYVDEDGVVRGASIPFQFRPENEEDILVVTTQGEVEEIEQHNKELCKENQELKDSCISLQKQNSDMQAELQKKQEELETLQSINKKLELKVKEQKDYWETELLQLKEQNQKMSSENEKMGIRVDQLQAQLSTQEKEMEKLVQGDQDKTEQLEQLKKENDHLFLSLTEQRKDQKKLEQTVEQMKQNETTAMKKQQELMDENFDLSKRLSENEIICNALQRQKERLEGENDLLKRENSRLLSYMGLDFNSLPYQVPTSDEGGARQNPGLAYGNPYSGIQESSSPSPLSIKKCPICKADDICDHTLEQQQMQPLCFNCPICDKIFPATEKQIFEDHVFCHSL

binding [9]: no binding
B7: His-Flag-NDP52 quadruple cysteine mutant (C18, C153, C163, C321 to Ala) (protein, UniProt Q13137 1-446)
chain: MEETIKDPPTSAVLLDHAHFSQVIFNSVEKFYIPGGDVTCHYTFTQHFIPRRKDWIGIFRVGWKTTREYYTFMWVTLPIDLNNKSAKQQEVQFKAYYLPKDDEYYQFCYVDEDGVVRGASIPFQFRPENEEDILVVTTQGEVEEIEQHNKELAKENQELKDSAISLQKQNSDMQAELQKKQEELETLQSINKKLELKVKEQKDYWETELLQLKEQNQKMSSENEKMGIRVDQLQAQLSTQEKEMEKLVQGDQDKTEQLEQLKKENDHLFLSLTEQRKDQKKLEQTVEQMKQNETTAMKKQQELMDENFDLSKRLSENEIIANALQRQKERLEGENDLLKRENSRLLSYMGLDFNSLPYQVPTSDEGGARQNPGLAYGNPYSGIQESSSPSPLSIKKCPICKADDICDHTLEQQQMQPLCFNCPICDKIFPATEKQIFEDHVFCHSL

The next lines start with the binder.

B3: GST-NDP52 wild-type (protein, UniProt Q13137 1-446)
chain: MEETIKDPPTSAVLLDHCHFSQVIFNSVEKFYIPGGDVTCHYTFTQHFIPRRKDWIGIFRVGWKTTREYYTFMWVTLPIDLNNKSAKQQEVQFKAYYLPKDDEYYQFCYVDEDGVVRGASIPFQFRPENEEDILVVTTQGEVEEIEQHNKELCKENQELKDSCISLQKQNSDMQAELQKKQEELETLQSINKKLELKVKEQKDYWETELLQLKEQNQKMSSENEKMGIRVDQLQAQLSTQEKEMEKLVQGDQDKTEQLEQLKKENDHLFLSLTEQRKDQKKLEQTVEQMKQNETTAMKKQQELMDENFDLSKRLSENEIICNALQRQKERLEGENDLLKRENSRLLSYMGLDFNSLPYQVPTSDEGGARQNPGLAYGNPYSGIQESSSPSPLSIKKCPICKADDICDHTLEQQQMQPLCFNCPICDKIFPATEKQIFEDHVFCHSL
binding [4]: no binding (condition: exposed to AO instead of H2O2)

B4: Flag-human NDP52 WT, Q13137 1-446 (protein)
chain: MEETIKDPPTSAVLLDHCHFSQVIFNSVEKFYIPGGDVTCHYTFTQHFIPRRKDWIGIFRVGWKTTREYYTFMWVTLPIDLNNKSAKQQEVQFKAYYLPKDDEYYQFCYVDEDGVVRGASIPFQFRPENEEDILVVTTQGEVEEIEQHNKELCKENQELKDSCISLQKQNSDMQAELQKKQEELETLQSINKKLELKVKEQKDYWETELLQLKEQNQKMSSENEKMGIRVDQLQAQLSTQEKEMEKLVQGDQDKTEQLEQLKKENDHLFLSLTEQRKDQKKLEQTVEQMKQNETTAMKKQQELMDENFDLSKRLSENEIICNALQRQKERLEGENDLLKRENSRLLSYMGLDFNSLPYQVPTSDEGGARQNPGLAYGNPYSGIQESSSPSPLSIKKCPICKADDICDHTLEQQQMQPLCFNCPICDKIFPATEKQIFEDHVFCHSL
binding [5]: binds

B5: His-Flag-NDP52 (protein, UniProt Q13137 1-446)
chain: MEETIKDPPTSAVLLDHCHFSQVIFNSVEKFYIPGGDVTCHYTFTQHFIPRRKDWIGIFRVGWKTTREYYTFMWVTLPIDLNNKSAKQQEVQFKAYYLPKDDEYYQFCYVDEDGVVRGASIPFQFRPENEEDILVVTTQGEVEEIEQHNKELCKENQELKDSCISLQKQNSDMQAELQKKQEELETLQSINKKLELKVKEQKDYWETELLQLKEQNQKMSSENEKMGIRVDQLQAQLSTQEKEMEKLVQGDQDKTEQLEQLKKENDHLFLSLTEQRKDQKKLEQTVEQMKQNETTAMKKQQELMDENFDLSKRLSENEIICNALQRQKERLEGENDLLKRENSRLLSYMGLDFNSLPYQVPTSDEGGARQNPGLAYGNPYSGIQESSSPSPLSIKKCPICKADDICDHTLEQQQMQPLCFNCPICDKIFPATEKQIFEDHVFCHSL
binding (His-Flag-NDP52 (human) [6]): no binding
binding (His-Flag-NDP52 (human) [7]): no binding

B6: GST-NDP52 wild-type, Q13137 1-446 (protein)
chain: MEETIKDPPTSAVLLDHCHFSQVIFNSVEKFYIPGGDVTCHYTFTQHFIPRRKDWIGIFRVGWKTTREYYTFMWVTLPIDLNNKSAKQQEVQFKAYYLPKDDEYYQFCYVDEDGVVRGASIPFQFRPENEEDILVVTTQGEVEEIEQHNKELCKENQELKDSCISLQKQNSDMQAELQKKQEELETLQSINKKLELKVKEQKDYWETELLQLKEQNQKMSSENEKMGIRVDQLQAQLSTQEKEMEKLVQGDQDKTEQLEQLKKENDHLFLSLTEQRKDQKKLEQTVEQMKQNETTAMKKQQELMDENFDLSKRLSENEIICNALQRQKERLEGENDLLKRENSRLLSYMGLDFNSLPYQVPTSDEGGARQNPGLAYGNPYSGIQESSSPSPLSIKKCPICKADDICDHTLEQQQMQPLCFNCPICDKIFPATEKQIFEDHVFCHSL
binding [8]: binds
